# In all, about 330,000 compounds went through this assay and about 7,700 (2.3%) were called active. Inconclusive results, whose numbers are uncertain, are shown with a selection of clear calls. Calls come from the whole dose curve; as a rule, active = well fitted inhibition curve with a large enough effect; inconclusive = small, poorly fitted or top-dose-only effect, or effect the other way; inactive = flat fitted curve, though single readings scatter. Potencies beside an inconclusive call are fits to weak or partial responses and may not hold up.
# Assay: qHTS screen for small molecules that inhibit ELG1-dependent DNA repair in human embryonic kidney (HEK293T) cells expressing luciferase-tagged ELG1; note: nearly all actives have a fitted effect of over 55% in size
# Details: HEK293T ELG1-luciferase reporter, luminescence, 16 h, DNA damage induced by 5-fluorouridine; activity change, negative = inhibition: at 46.1 µM (top of the series)
# In short: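 Quantitative HTS, concentration-response format. 2,000 cells/well co-treated with 5-fluorouridine and compound, 16 hr in 5% CO2 at 37 °C; ONE-Glo luminescence read after 30 min.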
# % is set by controls: 0 for no effect and ±100 for the full control effect; potency is the fitted concentration of half-maximal effect.
Compound,Potency,"activity change, negative = inhibition"
Cc1nn(-c2ccccc2Cl)c(Cl)c1/C=N/Nc1cccc(C(=O)O)c1,"inconclusive: 0.0259 µM [activator, full curve, poor fit]",–
COC(=O)c1ccc(N)c(N=CC2=C(O)CC(C)(C)CC2=O)c1,"inconclusive: 29.1 µM [activator, single point]",–
O=C(/C=C/c1cccc([N+](=O)[O-])c1)OCC(=O)N1CCN(C(=O)c2ccco2)CC1,"inconclusive: 9.2 µM [inhibitor, partial curve]",–
CCC(=O)Nc1cccc(C(=O)/C=C/c2ccccc2)c1,"inconclusive: 29.1 µM [inhibitor, single point]",–
CCn1c(SCC(=O)Nc2cc(C)on2)nc2sc3c(c2c1=O)CCCC3,–,inactive: 3.07%
CN(CC(=O)Nc1ccc(F)c(F)c1F)C(=O)/C=C/c1ccco1,"inconclusive: 23.1 µM [activator, single point]",–
O=c1c2ccccc2oc2cc(NCCCN3CCOCC3)ccc12,"inconclusive: 9.2 µM [activator, partial curve, poor fit]",–
Cc1cccc(C(=O)Nc2scc(CC(C)C)c2C(=O)O)c1,–,inactive: 5.68%
COc1ccc(OCCC(=O)OCC(=O)NCCc2ccccc2)cc1,–,inactive: -11.3%
CC(=O)CCc1ccc(Oc2nc(-c3cccnc3)nc3ccccc23)cc1,"inconclusive: 23.1 µM [inhibitor, partial curve]",–
O=C(NN1C(=O)/C(=C\c2cccnc2)SC1=S)C(c1ccccc1)c1ccccc1,–,inactive: -3.07%
O=[N+]([O-])c1cccnc1N/N=C/c1ccccc1O,"inconclusive: 4.11 µM [activator, partial curve]",–
CN(C)c1ccc(S(=O)(=O)NCC(=O)N2CCN(c3ccccc3)CC2)cc1[N+](=O)[O-],–,inactive: 16.9%
CC(=O)Nc1nc2n(n1)C(c1ccc(F)cc1)C=C(c1ccccc1)N2 (stereo not drawn),"inconclusive: 18.4 µM [inhibitor, single point]",–
Cc1ccc(-c2nc(C=Nc3ccc(O)cc3)c(O)o2)cc1,–,inactive: 6.5%
CCOC(=O)CC1(NC(=O)C2CCC(=O)N(Cc3ccccc3F)C2)CCCCC1 (stereo not drawn),–,inactive: 29%
COc1ccccc1NC(=S)N1CC(C)(C)C1=O,–,inactive: 2.37%
CCS(=O)(=O)N1CCN(c2cccc(C)c2C)CC1,–,inactive: -16.9%
CCOC(=O)c1cn(Cc2cccc(Cl)c2)c2cc(C)nn2c1=O,–,inactive: -13.8%
Cc1ccccc1NC(=O)c1ccc([N+](=O)[O-])o1,"inconclusive: 18.3 µM [inhibitor, single point]",–
Brc1ccc(CNc2ccc3ncccc3c2)cc1,"inconclusive: 20.6 µM [activator, partial curve]",–
COC1CC(C)NC(=S)N1 (stereo not drawn),"inconclusive: 25.9 µM [activator, partial curve, poor fit]",–
CCC(=O)N1CCN(c2ccc(NC(=O)c3cc4ccccc4o3)cc2Cl)CC1,active: 5.8 µM,–
Cc1ccc(C)c(NC(=O)CCCCCN2C(=O)[C@@H]3Cc4ccccc4CN3C2=O)c1,"inconclusive: 23.1 µM [inhibitor, single point]",–
Fc1ccc2cnc(C3=CCCCC3)cc2c1,"inconclusive: 4.61 µM [activator, full curve]",–

# Whole records, looked up by structure. Values in the order: Potency	activity change, negative = inhibition
# COc1ccccc1NC(=S)N1CC(C)(C)C1=O in the list: –	inactive: 2.37%
# CCOC(=O)c1cn(Cc2cccc(Cl)c2)c2cc(C)nn2c1=O in the list: –	inactive: -13.8%
# O=[N+]([O-])c1cccnc1N/N=C/c1ccccc1O in the list: inconclusive: 4.11 µM [activator, partial curve]	–

# Next results follow.

Compound,Potency,"activity change, negative = inhibition"
Cc1ccc(S(=O)(=O)N(C)c2ccc(C(=O)Nc3ccc(C)cn3)cc2)cc1,"inconclusive: 29.1 µM [inhibitor, single point]",–
CC1(C)Cc2cccc(OCC(=O)Nc3ccc(S(N)(=O)=O)cc3)c2O1,–,inactive: -9.22%
Cc1cccc2cc(C(c3nnnn3CC3CCCO3)N3CCOCC3)c(=O)[nH]c12 (stereo not drawn),–,inactive: 4.3%
CCc1ccc(NC(=O)CCn2cccc2)cc1,"inconclusive: 18.4 µM [activator, partial curve]",–
COc1ccc(NC(=O)c2ccccc2NC(=O)C2CC=CCC2C(=O)O)cc1 (stereo not drawn),"inconclusive: 20.6 µM [activator, single point]",–
CC(C)NC(=O)COC(=O)c1ccccc1CSC1=NCCS1,"inconclusive: 25.9 µM [inhibitor, single point]",–
CC1=C(C(=O)OC2CCCC2)C(c2coc3ccccc3c2=O)C2=C(CC(C)(C)CC2=O)N1 (stereo not drawn),"inconclusive: 29.1 µM [inhibitor, single point]",–
COc1ccc(OC)c(C(c2nnnn2CCc2ccccc2)N2CCN(c3ccccc3)CC2)c1 (stereo not drawn),–,inactive: -18.8%
Cc1ccc(C(=O)CSc2cc(C)[nH]c(=O)n2)cc1,"inconclusive: 5.17 µM [activator, partial curve]",–
COc1ccc(C(=O)Nc2nccs2)cc1,"inconclusive: 12.6 µM [activator, partial curve]",–
CCn1c(C)nnc1SCC(=O)Nc1cccc(Cl)c1,–,inactive: -2.34%
Cc1cc(NC(=O)CSc2nc(C3CCCCC3)nc3ccccc23)no1,"inconclusive: 29.1 µM [inhibitor, single point]",–
C=Cc1ccc(Cn2nc(-c3ccc(C)cc3)ccc2=O)cc1,–,inactive: -2.76%
Cc1ccc(C(=O)Nc2ccccc2C(=O)NC(CC(=O)O)C(=O)O)cc1 (stereo not drawn),"inconclusive: 13 µM [activator, single point]",–
Cc1noc(NS(=O)(=O)c2ccc(NC(=O)CSc3ncccn3)cc2)c1C,"inconclusive: 10.3 µM [activator, partial curve, poor fit]",–
C=CCn1c(C)cc(C(=O)COc2ccc(C)nc2[N+](=O)[O-])c1C,"inconclusive: 10.3 µM [activator, partial curve]",–
COc1ccc(/C(O)=C2/C(=O)C(=O)N(CCN3CCOCC3)C2c2ccccn2)cc1OC (stereo not drawn),"inconclusive: 18.4 µM [activator, partial curve]",–
O=C(/C=C/c1ccccc1Cl)NCc1ccco1,"inconclusive: 25.9 µM [activator, single point]",–
O=C(Cn1cnc2ccccc2c1=O)NCC1COc2ccccc2O1 (stereo not drawn),–,inactive: -0.196%
Oc1ccc(N=Nc2ccc3c(c2)OCCO3)c2cccnc12,"inconclusive: 8.2 µM [activator, partial curve]",–
COC(=O)c1c(C(=O)OC)c2ccccn2c1C(=O)c1ccccc1,"inconclusive: 20.6 µM [inhibitor, single point]",–
Cc1nc(N)sc1N=Nc1ccc(F)cc1,"inconclusive: 10.3 µM [activator, partial curve]",–
COc1ccc(NS(=O)(=O)c2cccc(C(=O)N/N=C/c3cn(-c4ccccc4)nc3-c3ccc(OC)cc3)c2)cc1,–,inactive: 0.384%
CCn1c(SCC(=O)NCCc2ccc(OC)c(OC)c2)nc2c1c(=O)n(C)c(=O)n2C,–,inactive: 0%
COC(=O)c1ccc(NC(=O)CSCc2ccccc2C)cc1,"inconclusive: 25.9 µM [activator, single point]",–

Compound,Potency,"activity change, negative = inhibition"
O=C(CSc1ccc(-c2ccco2)nn1)N1CCCCCC1,"inconclusive: 18.3 µM [activator, single point]",–
O=C(NCc1ccco1)C1CCN(S(=O)(=O)Cc2ccccc2)CC1,"inconclusive: 18.4 µM [inhibitor, single point]",–
Cc1nc(NC(=O)c2cc3ccccc3o2)ccc1Br,"inconclusive: 13 µM [activator, partial curve]",–
CCOC(=O)C1CCN(Cc2oc(CO)cc(=O)c2O)CC1,–,inconclusive: 20% [activator]
COc1ccc(NC(=O)C2C3C=CC4(O3)C2C(=O)N(CCCN2CCCC(C)C2)C4C(=O)NC2CCCCC2)cc1 (stereo not drawn),–,inactive: 0.521%
COc1ccc(C2(CNC(C)=O)CCOCC2)cc1OC,–,inactive: -6.8%
Cc1cc(C)cc(NC(=S)N(Cc2ccc(Cl)cc2)Cc2ccc(C(=O)O)cc2)c1,"inconclusive: 20.6 µM [inhibitor, single point]",–
C#CCN(CC=C)C(=O)c1ccc2nc(C3CCCCC3)oc2c1,"inconclusive: 4.61 µM [activator, partial curve]",–
COCCCNC(=O)c1cc2c(-c3ccc(Cl)cc3)nn(C)c2s1,"inconclusive: 18.4 µM [inhibitor, single point]",–
CCOC(=O)NCc1ccc2c(c1)OCO2,"inconclusive: 11.6 µM [activator, partial curve, poor fit]",–
COc1cc(C=O)ccc1OCc1ccccc1Br,"inconclusive: 14.6 µM [activator, partial curve]",–
C=CCN1C(=O)c2ccc(C(=O)N(CCC)CC(=O)Nc3ccccc3C)cc2C1=O,–,inactive: -0.0619%
Cc1cc(C)cc(NC(=S)NN)c1,–,inactive: -4.08%
CCC/C(=N\NC(=O)CCC(=O)NCc1ccccc1)c1ccccc1,–,inactive: -13.5%
CCOC(=O)/C(C#N)=C\C=C1C=CN(C)C=C1,"inconclusive: 18.4 µM [activator, partial curve]",–
CC(C)CNC(=O)CSc1nnc(-c2ccccn2)n1Cc1ccccc1,"inconclusive: 32.6 µM [inhibitor, partial curve, poor fit]",–
Cc1cccc(Nc2nnc(SCC3CCCCO3)s2)c1 (stereo not drawn),"inconclusive: 14.6 µM [activator, partial curve]",–
COc1ccc(C(C)(C)C)cc1NC(=O)C1CC=CCC1C(=O)O (stereo not drawn),–,inactive: -3.55%
COc1cccc(-c2ccc(NC(=O)C3CCCN(Cc4cnc(C)s4)C3)cc2)c1 (stereo not drawn),–,inactive: -23.3%
O=C(Nc1cc(C(F)(F)F)ccc1N1CCOCC1)c1n[nH]c(=O)c2ccccc12,–,inactive: 0%
c1ccc(Cc2nnc3sc(-c4ccc5c(c4)OCCO5)nn23)cc1,"inconclusive: 18.4 µM [activator, partial curve]",–
O=[N+]([O-])c1cc(Cl)ccc1N1CCCCC1,"inconclusive: 20.6 µM [activator, partial curve]",–
CCN(CC(=O)NCc1ccc(F)cc1)CC(=O)Nc1ccc(S(=O)(=O)N2CCCC2)cc1,"inconclusive: 29.1 µM [inhibitor, single point]",–

# Source: PubChem BioAssay AID504467 (National Center for Advancing Translational Sciences (NCATS), 2011)
